# Measured values published in patent publication US20060100431A1, “Biologically active compounds” (Amura Therapeutics Limited, priority 2002, published 2006).
# Some entries share one result that the patent states for a list of compounds. Some compounds share one range, which may span the group rather than tell each member.
# Biological target: T1, human cathepsin K (Homo sapiens, UniProt P43235)
# T1 construct: Dr. Boris Turk (Josef Stefan Institute, Ljubljana, Slovenia)
# T1 sequence (P43235 115-329): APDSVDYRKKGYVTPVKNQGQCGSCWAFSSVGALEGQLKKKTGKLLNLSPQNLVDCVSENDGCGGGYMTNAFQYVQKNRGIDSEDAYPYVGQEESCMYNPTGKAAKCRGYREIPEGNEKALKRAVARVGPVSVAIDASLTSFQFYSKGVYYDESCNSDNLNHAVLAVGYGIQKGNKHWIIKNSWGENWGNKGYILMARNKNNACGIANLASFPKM
# Assay: Cathepsin K peptidase activity assay (Ki)
# Format: biochemical
# Summary of the method: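 Buffer: 10 mM bis-tris-propane pH 6.5, 1 mM EDTA, 5 mM 2-mercaptoethanol, 1 mM CaCl2; DMSO <1%. Ki assumed reversible, pure-competitive, from Ki^app=Ki(1+[So]/KM^app) by non-linear regression.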
row,SMILES,"Ki, inhibitors of cathepsin K [nM]"
1,"CC(C)C[C@H](NC(=O)c1ccc(N(C)C)cc1)C(=O)N1CC[C@@H]2[C@H]1C(=O)CN2C(=O)c1cc2ccccc2s1 [Example 100, (3aR,6aS)-N-{(1S)-1-[4-(Benzo[b]thiophene-2-carbonyl)-6-oxo-hexahydro-pyrrolo[3,2-b]pyrrole-1-carbonyl)-3-methyl-butyl}-4-dimethylamino-benzamide]",1 to 5000
2,"CC(C)C[C@H](NC(=O)c1ccc(N(C)C)cc1)C(=O)N1CC[C@@H]2[C@H]1C(=O)CN2C(=O)[C@@H](N)CC1CCCCC1 [Example 215, (3aR,6aS)-N-{(1S)-1-[4-((2S)-2-Amino-3-cyclohexyl-propionyl)-6-oxo-hexahydro-pyrrolo[3,2-b]pyrrole-1-carbonyl]-3-methyl-butyl}-4-dimethylamino-benzamide]",1 to 5000
3,"CC[C@H](N)C(=O)N1CC(=O)[C@@H]2[C@H]1CCN2C(=O)[C@H](CC(C)C)NC(=O)c1ccc(N(C)C)cc1 [Example 203, (3aR,6aS)-N-{(1S)-1-[4-((2S)-2-Amino-butyryl)-6-oxo-hexahydro-pyrrolo[3,2-b]pyrrole-1-carbonyl]-3-methyl-butyl}-4-dimethylamino-benzamide]",1 to 5000
4,"CC(C)C[C@H](NC(=O)c1ccc(OC(F)(F)F)cc1)C(=O)N1CC[C@@H]2[C@H]1C(=O)CN2C(=O)c1ccccc1 [Example 173, (3aR,6aS)-N-[(1S)-1-(4-Benzoyl-6-oxo-hexahydro-pyrrolo[3,2-b]pyrrole-1-carbonyl)-3-methyl-butyl]-4-trifluoromethoxy-benzamide]",1 to 5000
5,"CC(C)C[C@H](NC(=O)c1ccc(C(C)C)cc1)C(=O)N1CC[C@@H]2[C@H]1C(=O)CN2C(=O)c1ccccc1 [Example 172, (3aR,6aS)-N-[(1S)-1-(4-Benzoyl-6-oxo-hexahydro-pyrrolo[3,2-b]pyrrole-1-carbonyl)-3-methyl-butyl]-4-isopropyl-benzamide]",1 to 5000
6,"CC(C)C[C@H](NC(=O)c1ccc(N)cc1)C(=O)N1CC[C@@H]2[C@H]1C(=O)CN2C(=O)c1cccc(S(C)(=O)=O)c1 [Example 61, (3aR,6aS)-4-Amino-N-{(1S)-1-[4-(3-methanesulfonyl-benzoyl)-6-oxo-hexahydro-pyrrolo[3,2-b]pyrrole-1-carbonyl]-3-methyl-butyl}-benzamide]",1 to 5000
7,"Cc1ccc(C(=O)N2CC(=O)[C@@H]3[C@H]2CCN3C(=O)[C@H](CC(C)C)NC(=O)c2ccc(N(C)C)cc2)cc1 [Example 55, (3aR,6aS)-4-Dimethylamino-N-{(1S)-3-methyl-1-[4-(4-methyl-benzoyl)-6-oxo-hexahydro-pyrrolo[3,2-b]pyrrole-1-carbonyl]-butyl}-benzamide]",1 to 5000
8,"CC(C)C[C@H](NC(=O)c1ccc(N(C)C)cc1)C(=O)N1CC[C@@H]2[C@H]1C(=O)CN2C(=O)c1ccc(OC(F)(F)F)cc1 [Example 71, (3aR,6aS)-4-Dimethylamino-N-{(1S)-3-methyl-1-[6-oxo-(4-trifluoromethoxy-benzoyl)-hexahydro-pyrrolo[3,2-b]pyrrole-1-carbonyl]-butyl}-benzamide]",1 to 5000
9,"CC(C)C[C@H](NC(=O)c1ccc(N(C)C)cc1)C(=O)N1CC[C@@H]2[C@H]1C(=O)CN2C(=O)c1ccc(O)cc1 [Example 49, (3aR,6aS)-4-Dimethylamino-N-{(1S)-1-[4-(4-hydroxy-benzoyl)-6-oxo-hexahydro-pyrrolo[3,2-b]pyrrole-1-carbonyl]-3-methyl-butyl}-benzamide]",1 to 5000
10,"CC(C)C[C@H](NC(=O)c1ccc(N(C)C)cc1)C(=O)N1CC[C@@H]2[C@H]1C(=O)CN2C(=O)C1(N)CC1 [Example 222, (3aR,6aS)-N-{(1S)-1-[4-(1-Amino-cyclopropanecarbonyl)-6-oxo-hexahydro-pyrrolo[3,2-b]pyrrole-1-carbonyl]-3-methyl-butyl}-4-dimethylamino-benzamide]",1 to 5000
11,"CC(C)C[C@H](NC(=O)c1ccc(N(C)C)cc1)C(=O)N1CC[C@@H]2[C@H]1C(=O)CN2C(=O)[C@H](CC(N)=O)NC(=O)OCc1ccccc1 [Example 148, (3aS,6aR)-((1S)-1-Carbamoylmethyl-2-{4-[(2S)-2-(4-dimethylaminobenzoylamino)-4-methyl-pentanoyl]-3-oxo-hexahydro-pyrrolo[3,2-b]pyrrol-1-yl}-2-oxo-ethyl)-carbamic acid benzyl ester]",1 to 5000
12,"CNCC(=O)N1CC(=O)[C@@H]2[C@H]1CCN2C(=O)[C@H](CC(C)C)NC(=O)c1ccc(N(C)C)cc1 [Example 200, (3aR,6aS)-4-Dimethylamino-N-{(1S)-3-methyl-1-[4-(2-methylamino-acetyl)-6-oxo-hexahydro-pyrrolo[3,2-b]pyrrole-1-carbonyl]-butyl}-benzamide]",1 to 5000
13,"CC(C)C[C@H](NC(=O)c1ccc(N(C)C)cc1)C(=O)N1CC[C@@H]2[C@H]1C(=O)CN2C(=O)c1cccc(C(F)(F)F)c1 [Example 68, (3aR,6aS)-4-Dimethylamino-N-{(1S)-3-methyl-1-[6-oxo-4-(3-trifluoromethyl-benzoyl)-hexahydro-pyrrolo[3,2-b]pyrrole-1-carbonyl]-butyl}-benzamide]",1 to 5000
14,"CCC[C@H](N)C(=O)N1CC(=O)[C@@H]2[C@H]1CCN2C(=O)[C@H](CC(C)C)NC(=O)c1ccc(N(C)C)cc1 [Example 210, (3aR,6aS)-N-{(1S)-1-[4-((2S)-2-Amino-pentanoyl)-6-oxo-hexahydro-pyrrolo[3,2-b]pyrrole-1-carbonyl]-3-methyl-butyl}-4-dimethylamino-benzamide]",1 to 5000
15,"COc1cccc(C(=O)N2CC(=O)[C@@H]3[C@H]2CCN3C(=O)[C@H](CC(C)C)NC(=O)c2ccc(N(C)C)cc2)c1 [Example 65, (3aR,6aS)-4-Dimethylamino-N-{(1S)-1-[4-(3-methoxy-benzoyl)-6-oxo-hexahydro-pyrrolo[3,2-b]pyrrole-1-carbonyl]-3-methyl-butyl}-benzamide]",1 to 5000
16,"CCC(C)C(=O)N1CC(=O)[C@@H]2[C@H]1CCN2C(=O)[C@H](CC(C)C)NC(=O)c1ccc(N(C)C)cc1 (stereo partly drawn) [Example 229, (3aR,6aS)-4-Dimethylamino-N-{(1S)-3-methyl-1-[4-(2-methyl-butyryl)-6-oxo-hexahydro-pyrrolo[3,2-b]pyrrole-1-carbonyl]-butyl}-benzamide]",1 to 5000
17,"CCC[C@H](NC(C)=O)C(=O)N1CC(=O)[C@@H]2[C@H]1CCN2C(=O)[C@H](CC(C)C)NC(=O)c1ccc(N(C)C)cc1 [Example 245, (3aR,6aS)-N-{(1S)-1-[4-((2S)-2-Acetylamino-pentanoyl)-6-oxo-hexahydro-pyrrolo[3,2-b]pyrrole-1-carbonyl]-3-methyl-butyl}-4-dimethylamino-benzamide]",1 to 5000
18,"CC(C)C[C@H](NC(=O)c1ccc(N(C)C)cc1)C(=O)N1CC[C@@H]2[C@H]1C(=O)CN2C(=O)[C@H](CC(=O)O)NC(=O)OCc1ccccc1 [Example 149, (3aS,6aR)-(3S)-3-Benzyloxycarbonylamino-4-{4-[(2S)-2-(4-dimethylamino-benzoylamino)methyl-pentanoyl)-3-oxo-hexahydro-pyrrolo[3,2-b]pyrrole-1-yl}-4-oxo-butyric acid]",1 to 5000
